Source: patent publication US20240043530A1 (JIANGSU HENGRUI PHARMACEUTICALS, published 2024)
No constants are given. Whether binding was seen depends on the method and setting. Some results given as binding are weak or reduced against the parent protein; the word gives no strength.

Experiments:
[1] = molecular target: cynomolgus monkey TIGIT expressed on cells (cynomolgus monkey); experiment: flow cytometry on cells overexpressing cynomolgus monkey TIGIT, labelled anti-human IgG (method of Example 5 with TIGIT)
[2] = molecular target: cynomolgus monkey TIGIT recombinant protein (cynomolgus monkey); experiment: ELISA, plate coated with cynomolgus monkey TIGIT recombinant protein, HRP anti-human IgG, OD450 (method of Example 4 with TIGIT)

binding [1]: binds | binding [2]: binds
B1: anti-TIGIT antibody 1708 (antibody, human IgG4 S228P, kappa, V domains shown)
VH: EVQLVQSGAEVKKPGASVKVSCKASGYTFTNYWMHWVRQAPGQGLEWMGRIDPDSTGSKYNEKFKTRVTMTRDTSTSTVYMELSSLRSEDTAVYYCAREGAYGYYFDYWGQGTLVTVSS
VL: DIQMTQSPSSLSASVGDRVTITCRASENIYSYLAWYQQKPGKSPKLLIYNARTLAEGVPSRFSGSGSGTDFTLTISSLQPEDFATYYCQYHSGSPLPFGGGTKVEIKR
notes: human IgG4 subtype with S228P; kappa light chain
